{"source": "patent US11787772B2", "about": "“Carboxylic diarythiazepineamines as mixed mu- and delta-opioid receptor agonists” (THE TRUSTEES OF COLUMBIA UNIVERSITY IN THE CITY OF NEW YORK, priority 2017, dated 2023)", "assay": "physchem", "settings": "25 °C, thermodynamic from solid", "experimental": "Test compounds (4 mg) were added to 200 μL of one of the tested aqueous solutions (hereinafter—buffer): 100 mM aqueous HCl (pH 1) or 100 mM Na-phosphate buffer (pH 7). The obtained suspensions/solutions with the theoretical concentration of 20 mg/mL were further allowed to equilibrate at 25° C. on a thermostatic orbital shaker for 24 hours and then centrifuged at 6000 rpm for 4 minutes and filtered through HTS filter plates using a vacuum manifold. In parallel, compound dilutions in 50% acetonitrile/HCl and 30% acetonitrile/Na-phosphate buffer mixes were prepared to theoretical concentrations of 0 mg/mL (blank), 0.1 mg/mL, 0.2 mg/mL, and 0.4 mg/mL in duplicates to generate calibration curves falling within the optimum UV absorption range. The filtrates of test compounds were diluted 100-fold with acetonitrile-buffer mixtures before measuring. The filtered supernatant test samples were transferred to 96-well plates and measured for absorbance in the 200-550 nm range with 5 nm step increment. The concentrations of compounds in supernatants were calculated using the measured absorbance and the previously determined calibration curve. Proper absorbance wavelengths for calculations were selected for each compound manually based on absorbance maxima (absolute absorbance unit values for the minimum and maximum concentration points within 0-2.5 OD range)."}
{"smiles": "CN1c2ccccc2C(NCCCCCCC(=O)O)c2ccc(Cl)cc2S1(=O)=O.Cl", "note": "(centres unmarked) [tianeptine (HCl salt), tianeptine, reference compound]", "values": [{"measurement": "solubility", "setting": "pH 1, simulated gastric fluid", "result": 680, "unit": "µg/mL"}, {"measurement": "solubility", "setting": "pH 7, aqueous buffer", "result": 260, "unit": "µg/mL"}]}
